Laboratory results from publication PMC12431657, “Discovery and mechanistic insights of dibenzoylmethane as a broad spectrum inhibitor of coronavirus” (PLOS Pathogens, 2025).
Where a name gives a salt, the structure may show the parent alone. Read-outs that look alike come from different tables or passages of the source. The campaign covered roughly 3,300 compounds. About 95 (3%) showed an effect of 50% or more. Some of the results follow.

Tested on: HCoV-229E
Design: species or system Huh-7; HTS, protection from HCoV-229E induced cell death, luminescent cell viability (CellCounting-Lite 2.0), inhibition rate
Conditions: 24 h post infection, 1 h compound pre-incubation, 10 µM, inhibitor

SMILES: Cc1nc2ccccc2c(=O)[nH]1 [2-Methylquinazolin-4-ol]
- 229E Inhibition rate: 43.6%

SMILES: OC[C@H](O)C(O)[C@@H](O)CO [L-Arabinitol]
- 229E Inhibition rate: 0%

SMILES: O=C1O[C@@H]2[C@@H](O)[C@H](O)[C@@H](CO)O[C@H]2c2c1cc(O)c(O)c2O [Norbergenin]
- 229E Inhibition rate: 24.1%

SMILES: C[C@@H]1O[C@@H](O[C@H]2[C@H](O[C@H]3CC[C@@]4(C)[C@@H](CC[C@]5(C)[C@@H]4CC=C4[C@@H]6CC(C)(C)CC[C@]6(C(=O)O[C@@H]6O[C@H](CO[C@@H]7O[C@H](CO)[C@@H](O)[C@H](O)[C@H]7O)[C@@H](O)[C@H](O)[C@H]6O)CC[C@]45C)[C@]3(C)CO)OC[C@H](O)[C@@H]2O)[C@H](O)[C@H](O[C@@H]2O[C@H](CO)[C@@H](O)[C@H](O)[C@H]2O)[C@H]1O [Macranthoidin A]
- 229E Inhibition rate: 7.7%

SMILES: C[C@@H]1O[C@@H](Oc2c(-c3ccc(O)c(O)c3)oc3cc(O)cc(O)c3c2=O)[C@H](O)[C@H](O)[C@H]1O [Quercitrin]
- 229E Inhibition rate: 7.3%

SMILES: CC(=O)OC[C@H]1O[C@@H](OC(C)=O)[C@H](OC(C)=O)[C@@H](OC(C)=O)[C@@H]1OC(C)=O [β-D-Glucose pentaacetate]
- 229E Inhibition rate: 9.5%

SMILES: NC(=O)CC[C@@H](N)C(=O)O [D-Glutamine]
- 229E Inhibition rate: 10.6%

SMILES: C[C@@]12CCc3occc3[C@H]1CC[C@@]13C[C@@H](CC[C@H]12)[C@@](O)(CO)C3 [Cafestol]
- 229E Inhibition rate: 26.2%

SMILES: C[C@@H]1O[C@@H](Oc2c(-c3cc(O)c(O)c(O)c3)oc3cc(O)cc(O)c3c2=O)[C@H](O)[C@H](O)[C@H]1O [Myricitrin]
- 229E Inhibition rate: 20.6%

SMILES: COc1cccc(-c2oc3ccccc3c(=O)c2O)c1 [3'-Methoxyflavonol]
- 229E Inhibition rate: 28.1%

SMILES: O=C(O)/C=C/c1ccccc1 [Cinnamic acid]
- 229E Inhibition rate (229E Inhibition rate, 24 h): 21%

SMILES: N[C@@H](CS)C(=O)O [L-Cysteine]
- 229E Inhibition rate (229E Inhibition rate, 24 h): 12.3%

SMILES: COC(=O)C1=CO[C@@H](O[C@@H]2O[C@H](CO)[C@@H](O)[C@H](O)[C@H]2O)[C@@H]2C(CO)=C[C@H](O)[C@H]12 [Methyl deacetylasperulosidate]
- 229E Inhibition rate: 11.6%

SMILES: COc1cc(C[C@H](C)[C@H](C)Cc2ccc3c(c2)OCO3)ccc1O [Macelignan]
- 229E Inhibition rate: 0%

SMILES: CC(=O)OC[C@]12[C@H](OC(C)=O)[C@H](OC(C)=O)[C@@H]3[C@@H](OC(C)=O)[C@@]14O[C@@]3(C)COC(=O)c1cccnc1CCC(C)C(=O)O[C@@H]([C@H](OC(=O)c1ccco1)[C@@H]2OC(C)=O)[C@]4(C)O (some centres unmarked) [Wilforgine]
- 229E Inhibition rate: 7.7%

SMILES: CN1CCC=C(C(=O)O)C1 [Arecaidine (hydrochloride)]
- 229E Inhibition rate (229E Inhibition rate, 24 h): 34.4%

SMILES: COc1cc(/C=C/C(O)=C/C(=O)/C=C/c2ccc(O)cc2)ccc1O [Demethoxycurcumin]
- 229E Inhibition rate: 23.2%

SMILES: C[C@H](CC[C@@H](O[C@@H]1O[C@H](CO[C@@H]2O[C@H](CO)[C@@H](O)[C@H](O)[C@H]2O)[C@@H](O)[C@H](O)[C@H]1O)C(C)(C)O)[C@H]1CC[C@@]2(C)[C@@H]3CC=C4[C@@H](CC[C@H](O)C4(C)C)[C@]3(C)[C@H](O)C[C@]12C [Mogroside IIA1]
- 229E Inhibition rate: 19.7%

SMILES: Nc1ncnc2c1ncn2[C@H]1C[C@H](O)[C@@H](COP(=O)(O)OP(=O)(O)OP(=O)(O)O)O1 [2'-Deoxyadenosine-5'-triphosphate (trisodium)]
- 229E Inhibition rate: 14.8%

SMILES: N[C@@H](CCSSCC[C@H](N)C(=O)O)C(=O)O [L-Homocystine]
- 229E Inhibition rate: 7.2%

SMILES: CC/C=C\C/C=C\C/C=C\CCCCCCCC(=O)OCC [Ethyl linolenate]
- 229E Inhibition rate: 15.9%

SMILES: CC1(C)Oc2cc3oc(-c4cc(O)cc(O[C@@H]5OC[C@@H](O)[C@H](O)[C@H]5O)c4)cc3cc2CC1O (some centres unmarked) [Mulberroside C]
- 229E Inhibition rate: 0%

SMILES: O=C(/C=C/c1ccc(O)c(O)c1)O[C@H]1[C@H](O)C[C@](O)(C(=O)O)C[C@H]1OC(=O)/C=C/c1ccc(O)c(O)c1 [3,4-Dicaffeoylquinic acid]
- 229E Inhibition rate: 7.5%

SMILES: O=Cc1ccc(CO)o1 [5-Hydroxymethylfurfural]
- 229E Inhibition rate: 7.6%

SMILES: CCCCCCc1cccs1 [2-Hexylthiophene]
- 229E Inhibition rate: 6.8%

SMILES: COc1cc(-c2coc3cc(O)c(OC)c(O)c3c2=O)cc(O)c1OC [Irigenin]
- 229E Inhibition rate: 11.4%

SMILES: OC[C@H]1O[C@@](CO)(OC[C@@]2(OC[C@@]3(OC[C@@]4(OC[C@@]5(O[C@H]6O[C@H](CO)[C@@H](O)[C@H](O)[C@H]6O)O[C@H](CO)[C@@H](O)[C@@H]5O)O[C@H](CO)[C@@H](O)[C@@H]4O)O[C@H](CO)[C@@H](O)[C@@H]3O)O[C@H](CO)[C@@H](O)[C@@H]2O)[C@@H](O)[C@@H]1O [1,1,1,1-Kestohexaose]
- 229E Inhibition rate: 11.2%

SMILES: O=C(O)CCCCCCC(=O)O [Suberic acid]
- 229E Inhibition rate: 0%

SMILES: O=c1c2cc(O[C@@H]3O[C@H](CO)[C@@H](O)[C@H](O)[C@H]3O)c(O)cc2oc2cc(O)c([C@@H]3O[C@H](CO)[C@@H](O)[C@H](O)[C@H]3O)c(O)c12 [Neomangiferin]
- 229E Inhibition rate: 22.1%

SMILES: C[C@@H](CO)CCC[C@@H](C)[C@H]1CC[C@H]2[C@@H]3CC=C4C[C@@H](O)CC[C@]4(C)[C@H]3CC[C@]12C [27-Hydroxycholesterol]
- 229E Inhibition rate: 8.1%

SMILES: COC(=S)NCc1ccc(O[C@@H]2O[C@@H](C)[C@H](O)[C@@H](O)[C@H]2O)cc1 [Niazinin]
- 229E Inhibition rate: 11.1%

SMILES: COc1cc(O)cc2oc(-c3ccc(O)c(O)c3)c(O)c(=O)c12 [Azaleatin]
- 229E Inhibition rate: 12.4%

SMILES: CCCCC[C@H](O)/C=C/[C@@H]1[C@@H](C/C=C\CCCC(=O)O)[C@@H](O)C[C@H]1O [Dinoprost]
- 229E Inhibition rate: 23.2%

SMILES: O=c1cc(-c2ccc(O)cc2)oc2c([C@@H]3OC[C@@H](O)[C@H](O)[C@H]3O)c(O)c([C@@H]3O[C@H](CO)[C@@H](O)[C@H](O)[C@H]3O)c(O)c12 [Vicenin 3]
- 229E Inhibition rate: 40.7%

SMILES: CC(C)=CCC[C@](C)(O[C@@H]1O[C@H](CO[C@@H]2O[C@@H](CO)[C@H](O)[C@H]2O)[C@@H](O)[C@H](O)[C@H]1O)[C@H]1CC[C@]2(C)[C@@H]1[C@H](O)C[C@@H]1[C@@]3(C)CC[C@H](O[C@@H]4O[C@H](CO)[C@@H](O)[C@H](O)[C@H]4O[C@@H]4O[C@H](CO)[C@@H](O)[C@H](O)[C@H]4O)C(C)(C)[C@@H]3CC[C@]12C [Ginsenoside Rc]
- 229E Inhibition rate: 12.8%

SMILES: CC(C)=CC(O)C/C(C)=C/COc1c2ccoc2cc2oc(=O)ccc12 (centres unmarked) [Notopterol]
- 229E Inhibition rate: 25%

SMILES: O=c1[nH]cnc2c1ncn2[C@H]1C[C@H](O)[C@@H](CO)O1 [2'-Deoxyinosine]
- 229E Inhibition rate: 16.4%

SMILES: CCCCCCCCCCC(=O)O [Undecanoic acid]
- 229E Inhibition rate: 5.6%

SMILES: C[C@@H]1O[C@@H](Oc2cc(O)c3c(=O)c(O)c(-c4ccc(O)c(O)c4)oc3c2)[C@H](O)[C@H](O)[C@H]1O [Vincetoxicoside B]
- 229E Inhibition rate: 12.7%

SMILES: C/C=C1/[C@H](O[C@@H]2O[C@H](CO)[C@@H](O)[C@H](O)[C@H]2O)OC=C(C(=O)OC)[C@H]1CC(=O)OCCc1ccc(O)c(O)c1 [Oleuropein]
- 229E Inhibition rate: 11.8%

SMILES: CC(CC(=O)C[C@@H](C)[C@H]1CC(=O)[C@@]2(C)C3=C(C(=O)[C@@H](O)[C@]12C)[C@@]1(C)CC[C@H](O)C(C)(C)[C@@H]1C[C@@H]3O)C(=O)O (some centres unmarked) [Ganoderic acid G]
- 229E Inhibition rate: 18.6%

SMILES: Cc1cc(=O)oc2cc(O)ccc12 [4-Methylumbelliferone]
- 229E Inhibition rate: 39.1%

SMILES: COC[C@@H](Cc1ccc(OC)c(OC)c1)[C@@H](COC)Cc1ccc(OC)c(OC)c1 [Phyllanthin]
- 229E Inhibition rate: 22.8%

SMILES: CCCCCCCCCC(O)CC(=O)O (centres unmarked) [3-Hydroxydodecanoic acid]
- 229E Inhibition rate: 9.4%

SMILES: COc1cc2c(cc1OC)[C@@H](Cc1ccc(Oc3cc(C[C@@H]4c5cc(OC)c(OC)cc5CCN4C)ccc3O)cc1)N(C)CC2 [Dauricine]
- 229E Inhibition rate: 3.6%

SMILES: CC(=O)O[C@H](CC=C(C)C)C1=CC(=O)c2c(O)ccc(O)c2C1=O [Acetylshikonin]
- 229E Inhibition rate: 4%

SMILES: Cn1c(=O)c2nc[nH]c2n(C)c1=O [Theophylline]
- 229E Inhibition rate: 6%

SMILES: COc1ccc(C=O)cc1 [4-Methoxybenzaldehyde]
- 229E Inhibition rate: 9.5%

SMILES: O=C1c2c(O)cccc2[C@@H]([C@@H]2O[C@H](CO)[C@@H](O)[C@H](O)[C@H]2O)c2cc(CO)cc(O)c21 [Aloin B]
- 229E Inhibition rate: 4.8%

SMILES: C/C=C/C(=O)C1=C(C)C=CCC1(C)C [Damascenone]
- 229E Inhibition rate: 18.4%

SMILES: COC(=O)c1cc(O)c(O)c(O)c1 [Methyl gallate]
- 229E Inhibition rate: 24.6%

SMILES: C[C@@H]1CC[C@]2(C(=O)O)CC[C@]3(C)C(=CC[C@@H]4[C@@]5(C)CC[C@H](O[C@@H]6OC[C@H](O)[C@H](O)[C@H]6O)C(C)(C)[C@@H]5CC[C@]43C)[C@@H]2[C@]1(C)O [Ziyuglycoside II]
- 229E Inhibition rate: 3.2%

SMILES: COc1cc(C(=O)O)cc(OC)c1O [Syringic acid]
- 229E Inhibition rate: 9.1%

SMILES: COc1cc(CCC(=O)CC(=O)CCc2ccc(O)c(OC)c2)ccc1O [Tetrahydrocurcumin]
- 229E Inhibition rate: 14.4%

SMILES: C[N+](C)(C)C[C@H](O)CC(=O)[O-] [L-Carnitine]
- 229E Inhibition rate (229E Inhibition rate, 24 h): 12.8%

SMILES: O=C1C[C@@H](c2ccc(O)c(O)c2)Oc2cc(O[C@@H]3O[C@H](CO)[C@@H](O)[C@H](O)[C@H]3O)cc(O)c21 [Eriodictyol-7-O-glucoside]
- 229E Inhibition rate: 45.6%
